Measured values as given in article PMC7272611.
No constants are given. Whether binding was seen depends on the method and setting. In cells and extracts the contact can be indirect. Some binding calls cover weakened binding; strength is not graded here.

By UniProt entry, the sequences of proteins in these tests, tags left out.
UniProt Q94517: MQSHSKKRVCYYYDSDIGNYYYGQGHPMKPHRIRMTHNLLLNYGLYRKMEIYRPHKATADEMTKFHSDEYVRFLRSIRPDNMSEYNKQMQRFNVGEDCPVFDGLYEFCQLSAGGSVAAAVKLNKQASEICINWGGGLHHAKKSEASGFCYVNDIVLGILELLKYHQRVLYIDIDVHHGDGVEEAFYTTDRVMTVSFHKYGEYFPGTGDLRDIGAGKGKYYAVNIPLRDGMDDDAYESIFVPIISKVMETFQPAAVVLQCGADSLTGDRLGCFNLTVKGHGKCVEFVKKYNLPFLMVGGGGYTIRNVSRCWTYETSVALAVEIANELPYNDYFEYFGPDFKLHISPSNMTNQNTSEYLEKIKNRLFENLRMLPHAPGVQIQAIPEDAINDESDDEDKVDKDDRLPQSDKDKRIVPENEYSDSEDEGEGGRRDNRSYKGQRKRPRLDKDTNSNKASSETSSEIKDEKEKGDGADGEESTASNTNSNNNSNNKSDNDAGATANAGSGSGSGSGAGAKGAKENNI
UniProt Q24572: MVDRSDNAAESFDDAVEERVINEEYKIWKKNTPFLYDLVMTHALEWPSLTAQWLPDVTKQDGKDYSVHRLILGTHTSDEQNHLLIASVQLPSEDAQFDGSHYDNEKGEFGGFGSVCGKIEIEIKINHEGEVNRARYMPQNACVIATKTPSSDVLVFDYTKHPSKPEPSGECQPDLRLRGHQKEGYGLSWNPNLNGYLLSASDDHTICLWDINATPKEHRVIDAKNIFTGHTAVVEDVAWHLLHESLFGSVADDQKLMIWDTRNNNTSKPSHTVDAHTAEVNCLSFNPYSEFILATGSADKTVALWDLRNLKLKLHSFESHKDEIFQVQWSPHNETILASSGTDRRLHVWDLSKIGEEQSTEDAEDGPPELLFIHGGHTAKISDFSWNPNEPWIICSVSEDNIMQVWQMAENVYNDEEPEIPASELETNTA

T1: Piwi (Drosophila (endogenous in OSC)) (UniProt Q9VKM1)
T1 sequence: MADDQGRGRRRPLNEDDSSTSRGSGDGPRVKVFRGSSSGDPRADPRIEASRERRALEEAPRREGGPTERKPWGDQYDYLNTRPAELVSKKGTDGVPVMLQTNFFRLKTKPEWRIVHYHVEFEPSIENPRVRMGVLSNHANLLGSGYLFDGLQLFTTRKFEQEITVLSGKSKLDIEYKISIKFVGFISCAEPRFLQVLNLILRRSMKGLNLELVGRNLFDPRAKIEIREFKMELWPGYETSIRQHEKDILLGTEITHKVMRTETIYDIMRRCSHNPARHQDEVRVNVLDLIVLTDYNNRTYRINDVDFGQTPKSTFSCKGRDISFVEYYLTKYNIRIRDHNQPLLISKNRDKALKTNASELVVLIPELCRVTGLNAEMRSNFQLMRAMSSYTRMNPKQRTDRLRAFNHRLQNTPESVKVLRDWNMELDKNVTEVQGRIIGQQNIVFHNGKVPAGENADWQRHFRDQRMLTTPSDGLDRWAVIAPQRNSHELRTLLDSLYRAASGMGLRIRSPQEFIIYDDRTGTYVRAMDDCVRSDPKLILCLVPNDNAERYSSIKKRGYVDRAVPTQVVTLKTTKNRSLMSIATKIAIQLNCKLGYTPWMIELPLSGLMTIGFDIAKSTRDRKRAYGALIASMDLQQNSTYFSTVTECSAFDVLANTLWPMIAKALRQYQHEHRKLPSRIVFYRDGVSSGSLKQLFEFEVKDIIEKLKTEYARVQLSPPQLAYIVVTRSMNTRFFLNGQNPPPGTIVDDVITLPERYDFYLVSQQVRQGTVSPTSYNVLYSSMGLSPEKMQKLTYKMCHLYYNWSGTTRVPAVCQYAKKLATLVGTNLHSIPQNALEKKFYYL


target: T1, Piwi (Drosophila (endogenous in OSC)); assay: co-IP; IP of endogenous Piwi (anti-Piwi mouse monoclonal) or endogenous MEP-1 (anti-MEP-1 rabbit polyclonal) from OSC nuclear extract (Gtsf1-FH-containing; for Fig. 6a expressing FLAG-FFL-Su(var)2-10), Nuclear Complex Co-IP Kit under stringent conditions, overnight at 4 °C, Dynabeads protein G, control IgG, western blot

| Molecule | binding |
| --- | --- |
| Rpd3 (from UniProt Q94517 1-521) | binds |
| p55 (from UniProt Q24572 1-430) | binds |
| Pc (protein, UniProt P26017 1-390) MTGRGKGSKGKLGRDNATDDPVDLVYAAEKIIQKRVKKGVVEYRVKWKGWNQRYNTWEPEVNILDRRLIDIYEQTNKSSGTPSKRGIKKKEKEPDPEPESEEDEYTFTENDVDTHQATTSSATHDKESKKEKKHHHHHHHHHHIKSERNSGRRSESPLTHHHHHHHHESKRQRIDHSSSSNSSFTHNSFVPEPDSNSSSSEDQPLIGTKRKAEVLKESGKIGVTIKTSPDGPTIKPQPTQQVTPSQQQPFQDQQQAEKIASEAATQLKSEQQATPLATEAINTTPAESGAEEEEVANEEGNQQAPQVPSENNNIPKPCNNLAINQKQPLTPLSPRALPPRFWLPAKCNISNRVVITDVTVNLETVTIRECKTERGFFRERDMKGDSSPVA | no binding |
